Structures can show the parent of a compound that is named as a salt. This is one part of the list. Many values rest on one well or one pass, so single values are uncertain. *1 amine or outer side, *2 acyl side, *3 side chain or, on linkers, in order; H or OH if unused. Where a SMILES comes first, the peptide text is derived from it. Bridges are numbered along the chain shown (N, C = ends). [ ]: non-standard residue; d: D form. The star is where a group is joined. X1 = NC1=N[C@@H]([C@H](N[*:1])C(=O)[*:2])C[C@H](O)N1; ΔAla(Z-3-ureido) = NC(=O)N/C=C(\N)C(=O)O; β3hOrn = NCCC[C@H](N)CC(=O)*; Dap = NC[C@H](N)C(=O)O
These compounds were tested on p95-ErbB2-MCF7 (assay: perinuclear lysosome accumulation (PNLA, size of LAMP2 puncta), robust Z-score vs plate median; higher = more perinuclear lysosome accumulation (reversal of invasive lysosome distribution)). Settings: 5 µM; 24 h.
CCN(CC)Cc1cc(Nc2ccnc3cc(Cl)ccc23)ccc1O [Amodiaquin dihydrochloride dihydrate] showed a perinuclear lysosome accumulation of 0.342. Compound COc1ccccc1N1CCN(CCCNc2cc(=O)n(C)c(=O)n2C)CC1 [Urapidil hydrochloride] has a perinuclear lysosome accumulation of 0.721. Cn1c(=O)c2c(ncn2CCO)n(C)c1=O [Etofylline] showed a perinuclear lysosome accumulation of -1.27. Compound CC(C)NCC(O)c1cc(O)cc(O)c1 (stereo not given) [Metaproterenol sulfate, orciprenaline sulfate] has a perinuclear lysosome accumulation of -0.78. In the case of C#CCN(C)CCCOc1ccc(Cl)cc1Cl [Clorgyline hydrochloride], the perinuclear lysosome accumulation is reported as -0.373. In the case of CC(=O)SCC(Cc1ccccc1)C(=O)NCC(=O)OCc1ccccc1 (stereo not given) [Racecadotril], the perinuclear lysosome accumulation is reported as 1.24. With C[C@H](CCC(=O)O)[C@H]1CC[C@H]2[C@@H]3CC[C@@H]4C[C@H](O)CC[C@]4(C)[C@H]3CC[C@]12C [Lithocholic acid] the perinuclear lysosome accumulation was -0.724. For COC(=O)C1=C(C)NC(C)=C(C(=O)OC(C)C)C1c1cccc2nonc12 (stereo not given) [Isradipine], the perinuclear lysosome accumulation was -0.0671. For COCC(=O)Nc1c(I)c(C(=O)NCC(O)CO)c(I)c(C(=O)N(C)CC(O)CO)c1I (stereo not given) [Iopromide], the perinuclear lysosome accumulation was -0.993. C[C@@]1(O)CCOC(=O)C1 [Mevalonic-D, L acid lactone] was tested, and the perinuclear lysosome accumulation was 0.841. In the case of O=C(O)CCCC[C@@H]1SC[C@@H]2NC(=O)N[C@@H]21 [Biotin], the perinuclear lysosome accumulation is reported as 0.626. Work on CC1COc2c(N3CCN(C)CC3)c(F)cc3c(=O)c(C(=O)O)cn1c23 (stereo not given) [Ofloxacin] yielded a perinuclear lysosome accumulation of -2.09. Work on CC(C)C(=O)Nc1ccc([N+](=O)[O-])c(C(F)(F)F)c1 [Flutamide] yielded a perinuclear lysosome accumulation of -0.123. Cn1cnc([N+](=O)[O-])c1Sc1ncnc2[nH]cnc12 [Azathioprine] was tested, and the perinuclear lysosome accumulation was 0.0549. OCCN1C[C@H](O)[C@@H](O)[C@H](O)[C@H]1CO [Miglitol] was tested, and the perinuclear lysosome accumulation was -0.753. NCC[C@H](O)C(=O)N[C@@H]1C[C@H](N)[C@@H](O[C@H]2O[C@H](CN)[C@@H](O)[C@H](O)[C@H]2O)[C@H](O)[C@H]1O[C@H]1O[C@H](CO)[C@@H](O)[C@H](N)[C@H]1O [Amikacin hydrate] was tested, and the perinuclear lysosome accumulation was -0.122. For Fc1ccc([C@@H]2CCNC[C@H]2COc2ccc3c(c2)OCO3)cc1 [Paroxetine Hydrochloride], the perinuclear lysosome accumulation was -3.23. In the case of Nc1nc(O)c2ncn(CCC(CO)CO)c2n1 [Penciclovir], the perinuclear lysosome accumulation is reported as 0.938. Work on O=c1[nH]cnc2c1ncn2[C@H]1CC[C@@H](CO)O1 [Didanosine] yielded a perinuclear lysosome accumulation of -1.57. With NCCC[C@H](N)CC(=O)N[C@H]1CNC(=O)[C@H]([C@H]2C[C@H](O)NC(N)=N2)NC(=O)/C(=C/NC(N)=O)NC(=O)[C@H](CO)NC(=O)[C@H](CO)NC1=O [Viomycin sulfate] (β3hOrn-[Dap]SS[ΔAla(Z-3-ureido)][X1]; lactam 1-C) the perinuclear lysosome accumulation was -0.391. NC(CO)C(=O)NNCc1ccc(O)c(O)c1O (stereo not given) [Benserazide hydrochloride] gave a perinuclear lysosome accumulation of 0.0512. CN1CCC(OC(c2ccccc2)c2ccccc2)CC1 [Diphenylpyraline hydrochloride] gave a perinuclear lysosome accumulation of -0.123. Clc1ccc(Nc2nnc(Cc3ccncc3)c3ccccc23)cc1 [Vatalanib] showed a perinuclear lysosome accumulation of 0.514. Work on Cc1cc(N)c2ccccc2[n+]1CCCCCCCCCC[n+]1c(C)cc(N)c2ccccc21 [Dequalinium dichloride] yielded a perinuclear lysosome accumulation of 2.42. For Nc1ccn([C@@H]2CS[C@H](CO)O2)c(=O)n1 [Lamivudine], the perinuclear lysosome accumulation was 0.286. With COc1ccccc1OCC(O)COC(N)=O (stereo not given) [Methocarbamol] the perinuclear lysosome accumulation was -0.242. NC1CCN(c2nc3c(cc2F)c(=O)c(C(=O)O)cn3-c2ccc(F)cc2F)C1 (stereo not given) [Tosufloxacin hydrochloride] was tested, and the perinuclear lysosome accumulation was -1.85. COC(=O)Nc1nc2cc([S+]([O-])c3ccccc3)ccc2[nH]1 (stereo not given) [Oxfendazol] showed a perinuclear lysosome accumulation of -0.427. Work on c1ccc(CNc2ncnc3nc[nH]c23)cc1 [Aminopurine, 6-benzyl] yielded a perinuclear lysosome accumulation of 0.935. In the case of CN1Cc2c(N)cccc2C(c2ccccc2)C1 (stereo not given) [Nomifensine maleate], the perinuclear lysosome accumulation is reported as 0.356. For CC(C)(O)c1ccccc1CC[C@@H](SCC1(CC(=O)O)CC1)c1cccc(/C=C/c2ccc3ccc(Cl)cc3n2)c1 [Montelukast], the perinuclear lysosome accumulation was 0.774. Compound CCOC(=O)[C@@](C)(N)Cc1ccc(O)c(O)c1 [Methyldopate hydrochloride] has a perinuclear lysosome accumulation of -0.242. Work on O=C(c1ccccc1)c1ccc2n1CCC2C(=O)O (stereo not given) [Ketorolac tromethamine] yielded a perinuclear lysosome accumulation of -0.554. COc1c(N2CCNC(C)C2)c(F)cc2c(=O)c(C(=O)O)cn(C3CC3)c12 (stereo not given) [Gatifloxacin] was tested, and the perinuclear lysosome accumulation was -3.04. CC(C(=O)O)c1ccc(C(=O)c2ccccc2)s1 (stereo not given) [Tiaprofenic acid] showed a perinuclear lysosome accumulation of 1.41. In the case of CC(=O)N(CC(O)CN(C(C)=O)c1c(I)c(C(=O)NCC(O)CO)c(I)c(C(=O)NCC(O)CO)c1I)c1c(I)c(C(=O)NCC(O)CO)c(I)c(C(=O)NCC(O)CO)c1I (stereo not given) [Iodixanol], the perinuclear lysosome accumulation is reported as -0.376. Compound c1ccc(CN(CC2=NCCN2)c2ccccc2)cc1 [Antazoline hydrochloride] has a perinuclear lysosome accumulation of -1.03. CN(C)CC/C=C1/c2ccccc2COc2ccc(CC(=O)O)cc21 [Olopatadine hydrochloride] gave a perinuclear lysosome accumulation of 0.718. Work on C=CCSCC1Nc2cc(Cl)c(S(N)(=O)=O)cc2S(=O)(=O)N1 (stereo not given) [Althiazide] yielded a perinuclear lysosome accumulation of 1.55. CCCOc1ccc(C(=O)OCCN(CC)CC)cc1N [Proparacaine hydrochloride] showed a perinuclear lysosome accumulation of 1.48. For CC(=O)OCC(=O)[C@@]1(OC(C)=O)[C@@H](C)C[C@H]2[C@@H]3C[C@H](F)C4=CC(=O)C=C[C@]4(C)[C@@]3(F)[C@@H](O)C[C@@]21C [Diflorasone Diacetate], the perinuclear lysosome accumulation was -1.24. For C[C@]1(Cn2ccnn2)[C@H](C(=O)O)N2C(=O)C[C@H]2S1(=O)=O [Tazobactam], the perinuclear lysosome accumulation was -0.297. CC(CN(C)C)C(C)(O)Cc1ccc(Cl)cc1 (stereo not given) [Clobutinol hydrochloride] gave a perinuclear lysosome accumulation of -1.44. In the case of CC[C@@H](CO)NCCN[C@@H](CC)CO [Ethambutol dihydrochloride], the perinuclear lysosome accumulation is reported as -0.0111. With C=CCOC(Cn1ccnc1)c1ccc(Cl)cc1Cl (stereo not given) [Enilconazole] the perinuclear lysosome accumulation was -1.2. Compound CC1(C)[C@@H](OC(=O)CCC(=O)O)CC[C@]2(C)[C@H]3C(=O)C=C4[C@@H]5C[C@@](C)(C(=O)O)CC[C@]5(C)CC[C@@]4(C)[C@]3(C)CC[C@@H]12 [Carbenoxolone disodium salt] has a perinuclear lysosome accumulation of 1.29. CC(CN(C)C)CN1c2ccccc2Sc2ccccc21 (stereo not given) [Trimeprazine tartrate] showed a perinuclear lysosome accumulation of 2.69. C#C[C@]1(O)CC[C@H]2[C@@H]3CCC4=CC(=O)CC[C@@H]4[C@H]3CC[C@@]21CC [Norgestrel-(-)-D] showed a perinuclear lysosome accumulation of -0.538. For N=C(N)NCCN1CCCCCCC1 [Guanethidine sulfate], the perinuclear lysosome accumulation was 0.948. With CN(C)[C@@H]1C(O)=C(C(N)=O)C(=O)[C@@]2(O)C(O)=C3C(=O)c4c(O)cccc4[C@@](C)(O)[C@H]3[C@H](O)[C@@H]12 [Oxytetracycline dihydrate] the perinuclear lysosome accumulation was 0.913. Work on CSc1ccc2c(c1)N(CCC1CCCCN1C)c1ccccc1S2 (stereo not given) [Thioridazine hydrochloride] yielded a perinuclear lysosome accumulation of 5.71. Work on CC1=C(/C=C/C(C)=C/C=C/C(C)=C\C(=O)O)C(C)(C)CCC1 [Isotretinoin] yielded a perinuclear lysosome accumulation of -0.998. Compound CC/C(=C(/CC)c1ccc(O)cc1)c1ccc(O)cc1 [Diethylstilbestrol] has a perinuclear lysosome accumulation of 0.824. Cc1cc(-c2ccccc2)nnc1NCCN1CCOCC1 [Minaprine dihydrochloride] was tested, and the perinuclear lysosome accumulation was -1.77. NC(N)=Nc1nc(CSCC/C(N)=N/S(N)(=O)=O)cs1 [Famotidine] was tested, and the perinuclear lysosome accumulation was 1.18. COc1cc(-c2ccc(=O)[nH]n2)ccc1OC(F)F [Zardaverine] was tested, and the perinuclear lysosome accumulation was -0.398. Compound COc1cc(NC(C)CCCN)c2ncccc2c1 (stereo not given) [Primaquine diphosphate] has a perinuclear lysosome accumulation of 1.91. Work on CCCCC1(COC(=O)CCC(=O)O)C(=O)N(c2ccccc2)N(c2ccccc2)C1=O [Suxibuzone] yielded a perinuclear lysosome accumulation of -0.272. In the case of CCCCNc1c(C(=O)OCC)c(C)nc2c1cnn2CC [Tracazolate hydrochloride], the perinuclear lysosome accumulation is reported as 0.315. C[C@]12CC[C@@H]3c4ccc(OS(=O)(=O)O)cc4CC[C@H]3[C@@H]1CCC2=O [Estropipate] showed a perinuclear lysosome accumulation of -1.34. Compound Cc1ccc(S(=O)(=O)NC(=O)NN2CCCCCC2)cc1 [Tolazamide] has a perinuclear lysosome accumulation of -1.21. Work on OC(CCCN1CCCCC1)(c1ccccc1)c1ccccc1 [Diphenidol hydrochloride] yielded a perinuclear lysosome accumulation of 1.48. For CCN(CC)CCOC(=O)C(c1ccccc1)c1ccccc1 [Adiphenine hydrochloride], the perinuclear lysosome accumulation was -4.57. CCOC(=O)c1ccc(N)cc1 [Benzocaine] showed a perinuclear lysosome accumulation of -0.798. CNC(C)CCC=C(C)C (stereo not given) [Isometheptene mucate] was tested, and the perinuclear lysosome accumulation was -1.14. O=C(COc1ccc(Cl)cc1)N1CCN(Cc2ccc3c(c2)OCO3)CC1 [Fipexide hydrochloride] was tested, and the perinuclear lysosome accumulation was -0.812. Compound CN(Cc1cnc2nc(N)nc(N)c2n1)c1ccc(C(=O)N[C@@H](CCC(=O)O)C(=O)O)cc1 (racemic) [Amethopterin (R,S)] has a perinuclear lysosome accumulation of 1.25. Work on CN(Cc1cnc2nc(N)nc(N)c2n1)c1ccc(C(=O)N[C@@H](CCC(=O)O)C(=O)O)cc1 [Methotrexate] yielded a perinuclear lysosome accumulation of 2.77. With CCN(CC)CCNc1ccc(CO)c2sc3ccccc3c(=O)c12 [Hycanthone] the perinuclear lysosome accumulation was 1.91. CN(C)c1ccc(O)c2c1C[C@H]1C[C@H]3[C@H](N(C)C)C(O)=C(C(N)=O)C(=O)[C@@]3(O)C(O)=C1C2=O [Minocycline hydrochloride] gave a perinuclear lysosome accumulation of 2.22. Cc1ccsc1/C=C/C1=NCCCN1C [Morantel tartrate] gave a perinuclear lysosome accumulation of -1.6. CN(C)CCCN1c2ccccc2Sc2ccc(Cl)cc21 [Chlorpromazine hydrochloride] was tested, and the perinuclear lysosome accumulation was 2.54. CCOc1ccccc1OC(c1ccccc1)C1CNCCO1 (stereo not given) [Reboxetine mesylate] showed a perinuclear lysosome accumulation of -0.823. Compound Nc1ccc(S(=O)(=O)Nc2ccccn2)cc1 [Sulfapyridine] has a perinuclear lysosome accumulation of -0.743. Work on Nc1ccn([C@@H]2O[C@H](CO)[C@@H](O)[C@@H]2O)c(=O)n1 [Cytarabine] yielded a perinuclear lysosome accumulation of 0.916. For CC(COc1ccccc1)NC(C)C(O)c1ccc(O)cc1 (stereo not given) [Isoxsuprine hydrochloride], the perinuclear lysosome accumulation was 0.298. CCOC(=O)NNc1nncc2ccccc12 [Todralazine hydrochloride] was tested, and the perinuclear lysosome accumulation was 0.5. Work on CCCCN1CCCCC1C(=O)Nc1c(C)cccc1C (stereo not given) [Bupivacaine hydrochloride] yielded a perinuclear lysosome accumulation of 1.27. Compound CC(=O)[C@H]1CC[C@H]2[C@@H]3CC=C4C[C@@H](O)CC[C@]4(C)[C@H]3CC[C@]12C [Pregnenolone] has a perinuclear lysosome accumulation of 3.62. COc1ccc(CC2c3cc(OC)c(OC)cc3CC[N+]2(C)CCC(=O)OCCCCCOC(=O)CC[N+]2(C)CCc3cc(OC)c(OC)cc3C2Cc2ccc(OC)c(OC)c2)cc1OC (stereo not given) [Atracurium besylate] gave a perinuclear lysosome accumulation of -1.3.
